Reference: patent publication US7030287B2, “Method of decreasing nitrate nitrogen and volatile organic compound in soil and groundwater” (Matsushita Electric Industrial Co., Ltd., priority 2001, dated 2006)

Experiment: Artificial groundwater experiment (Example 2): 800 g hydrogen donor added from artificial well, analysis of sampled groundwater
Conditions: 800 g material
Text: FIG. 2 is a sectional view showing an artificial groundwater experiment facility used for effecting a groundwater experiment in the method of decreasing nitrate nitrogen and volatile organic compounds in Example 2.
In the experiment bath 17 surrounded by the concrete block frame 11 in the artificial groundwater experiment facility, the ground surface area of the experiment soil 12 was 18 m^2, and the soil depth was 6.0 m. Under this experiment soil 12, a gravel layer 13 is formed at a thickness of 50 cm. A mixture of kuroboku soil and loam at a ratio of about 6:4 was used as the experiment soil 12.
In the experiment bath 17, an artificial well 14 constituted of a vinyl chloride tube having a diameter of 20 cm is provided. This artificial well 14 is provided at a position 0.5 m from the inner wall surface at one end of the experiment bath 17 (this inner wall surface is standard position) and has a depth of about 6 m, and reaches to the gravel layer 13. Further, a nitrate nitrogen solution addition piper 16 for adding a nitrate nitrogen solution is buried at a position 2 m from the inner wall surface (standard position) of the experiment bath 17 in the artificial groundwater experiment facility, extending to a position 4 m depth from the ground surface. A measurement water incorporating port 15 communicating to outside is provided on another inner wall surface opposite to the standard surface, one inner wall surface. This measurement water incorporating port 15 is formed at a position 50 cm from the bottom (corresponding to the uppermost part of the gravel layer 13), and provided for sampling measurement water which is groundwater.
The following experiments were conducted in 12 compartments using the artificial soil experiment facility constituted as described above.
In each experiment bath 17, a nitrate nitrogen solution of which nitrate nitrogen concentration had been previously controlled to 40 mg/L was added continuously from the end of the nitrate nitrogen solution adding pipe 16 (position 4 m from the ground surface) at a rate of 12 mL/day using a metering pump.
Under the above-mentioned conditions, movement of artificial groundwater is estimated to about 6.5 m/year. The present inventors have added 800 g of each hydrogen donor from the artificial well 14 in each test district and each comparative district. 30 days after initiation of the test, water was sampled from the measurement water incorporating port 15 formed at a position 50 cm from the bottom (corresponding to the uppermost part of gravel layer), and analyses of the nitrate nitrogen concentration, ammonia nitrogen concentration and total carbon concentration of the collected water were conducted according to JIS methods.

Row | Molecule | Ammonia nitrogen concentration after 30 days | Whole carbon concentration after 30 days
1 | Myristilate | 0.5 mg/L | 8 mg/L
2 | CCCCCCCCCCCCCCOC(=O)CCCCCCCCCCCCC [Myristyl myristate] | 0.6 mg/L | 8 mg/L
3 | CCCCCCCCCCCCCCCCCCO [Stearyl alcohol] | 0.9 mg/L | 9 mg/L
4 | Sorbitan monopalmitate | 0.5 mg/L | 7 mg/L
5 | Tetraglyceryl pentastearate | 0.5 mg/L | 10 mg/L
